± gives the standard deviation of the averaged measurements. Most entries show no effect beyond the scatter of the controls.
Tests used:
Test in all cases: level (log10 ratio to DMSO vehicle control); higher = higher biomarker level / cell amount than vehicle control
[1] = compound: C=CC(=O)OCC(F)(F)C(F)(F)C(F)(F)C(F)(F)C(F)(F)C(F)(F)C(F)(F)C(F)F [1H,1H,9H-Perfluorononyl acrylate]; settings: 2200 nM; in DMSO
Description: (§1)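 BioMAP Diversity Plus panel of 12 human primary cell co-culture systems (3C, 4H, LPS, SAg, BT, BF4T, BE3C, CASM3C, HDF3CGF, KF3CT, MyoF, Mphg). Compounds were added 1 h before stimulation and left for 24 h (MyoF 48 h; BT 72 h for soluble read-outs or 6 d for IgG). Biomarkers were read by ELISA, cytotoxicity by SRB, PBMC viability and proliferation by Alamar Blue. Each well value was divided by the mean of 8 DMSO control wells on the same plate and log10 transformed; duplicate blinded samples were tested at 4 concentrations.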

[2] = compound: CCOC(=O)CC(=O)C(F)(F)C(F)(F)F [Ethyl pentafluoropropionyl acetate]; settings: 2200 nM; in DMSO
Description: as §1

[3] = compound: FC(F)(F)C(F)(F)C(F)(F)C(F)(F)C(F)(F)C(F)(F)C(F)(F)C(F)(F)CCS [2-(Perfluorooctyl)ethanthiol]; settings: in DMSO
Description: as §1

Perfluorooctanamidine = compound: N=C(N)C(F)(F)C(F)(F)C(F)(F)C(F)(F)C(F)(F)C(F)(F)C(F)(F)F [Perfluorooctanamidine]; settings: in DMSO
Description: as §1

[4] = compound: O=C(CC(=O)C(F)(F)C(F)(F)C(F)(F)F)c1cccs1 [(Perfluorobutyryl)-2-thenoylmethane]; settings: 2200 nM; in DMSO
Description: as §1

Perfluorodecanoic acid = compound: O=C(O)C(F)(F)C(F)(F)C(F)(F)C(F)(F)C(F)(F)C(F)(F)C(F)(F)C(F)(F)C(F)(F)F [Perfluorodecanoic acid]; settings: in DMSO
Description: as §1

Perfluorononanoic acid = compound: O=C(O)C(F)(F)C(F)(F)C(F)(F)C(F)(F)C(F)(F)C(F)(F)C(F)(F)C(F)(F)F [Perfluorononanoic acid]; settings: 2200 nM; in DMSO
Description: as §1

[5] = compound: O=C(O)C(F)(F)C(F)(F)C(F)(F)C(F)(F)C(F)(F)C(F)(F)C(F)(F)F [Ammonium perfluorooctanoate]; settings: 2200 nM; in DMSO
Description: as §1

Perfluorooctanoic acid = compound: O=C(O)C(F)(F)C(F)(F)C(F)(F)C(F)(F)C(F)(F)C(F)(F)C(F)(F)F [Perfluorooctanoic acid]; settings: 2200 nM; in DMSO
Description: as §1

[6] = compound: O=C(O)C(F)(F)OC(F)(F)C(F)(F)OC(F)(F)C(F)(F)OC(F)(F)C(F)(F)C(F)(F)C(F)(F)F [Perfluoro-3,6,9-trioxatridecanoic acid]; settings: 2200 nM; in DMSO
Description: as §1

[7] = compound: O=C(O)C(F)(F)OC(F)(F)C(F)(F)OC(F)(F)F [Perfluoro-3,6-dioxaheptanoic acid]; settings: 2200 nM; in DMSO
Description: as §1

[8] = compound: O=C(O)CCC(F)(C(F)(F)F)C(F)(F)F [4,4-bis(Trifluoromethyl)-4-fluoropropanoic acid]; settings: 2200 nM; in DMSO
Description: as §1

[9] = compound: OCC(F)(F)C(F)(F)C(F)(F)C(F)(F)C(F)(F)C(F)(F)C(F)(F)C(F)(F)CO [1H,1H,10H,10H-Perfluorodecane-1,10-diol]; settings: 2200 nM; in DMSO
Description: as §1

[10] = compound: OCC(F)(F)OC(F)(F)C(F)(F)OC(F)(F)C(F)(F)OC(F)(F)CO [1H,1H,11H,11H-Perfluorotetraethylene glycol]; settings: 2200 nM; in DMSO
Description: as §1

Test System | level (log10) [1] | level (log10) [2] | level (log10) ([3]; 740 nM) | level (log10) ([3]; 2200 nM) | level (log10) (Perfluorooctanamidine; 2200 nM) | level (log10) (Perfluorooctanamidine; 6700 nM) | level (log10) (Perfluorooctanamidine; 20000 nM) | level (log10) (Perfluorooctanamidine; 60000 nM) | level (log10) [4] | level (log10) (Perfluorodecanoic acid; 2200 nM) | level (log10) (Perfluorodecanoic acid; 6700 nM) | level (log10) (Perfluorodecanoic acid; 20000 nM) | level (log10) (Perfluorononanoic acid) | level (log10) [5] | level (log10) (Perfluorooctanoic acid) | level (log10) [6] | level (log10) [7] | level (log10) [8] | level (log10) [9] | level (log10) [10]
MyoF:SRB | 0.002 ± 0.011 | 0.002 ± 0.0042 | 0.0015 ± 0.0064 | -0.01 ± 0.014 | 0.0075 ± 0.022 | 0.007 ± 0.0028 | -0.003 ± 0.0042 | 0.013 | 0.0105 ± 0.015 | 0.0185 ± 0.0092 | -0.033 ± 0.0014 | -0.08 ± 0.0099 | 0.0095 ± 0.013 | 0.0045 ± 0.00071 | 0.008 ± 0.017 | 0.018 ± 0.02 | 0.0035 ± 0.015 | -0.003 ± 0.0028 | -0.012 ± 0.0057 | 0 ± 0.0057
MyoF:MMP-1 | 0.005 ± 0.041 | 0.0065 ± 0.087 | -0.0415 ± 0.067 | -0.047 ± 0.031 | 0.0065 ± 0.073 | -0.025 ± 0.024 | -0.01 | 0.062 | 0.0415 ± 0.053 | -0.0105 ± 0.019 | -0.0005 ± 0.023 | -0.048 ± 0.0057 | -0.0565 ± 0.025 | -0.0025 ± 0.039 | 0.0215 ± 0.069 | 0.032 ± 0.047 | -0.0225 ± 0.047 | 0.0075 ± 0.029 | 0.0155 ± 0.11 | 0.0135 ± 0.074
LPS:CCL2/MCP-1 | 0.015 ± 0.014 | -0.0185 ± 0.011 | 0.01 ± 0.031 | 0.0235 ± 0.0078 | 0.013 ± 0.018 | -0.0005 ± 0.021 | -0.003 ± 0.0028 | -0.023 | 0.002 ± 0.033 | 0.0075 ± 0.033 | -0.0005 ± 0.012 | -0.0015 ± 0.0064 | 0.005 ± 0.014 | 0.0085 ± 0.0092 | 0.015 ± 0.0085 | -0.036 ± 0.024 | -0.003 ± 0.042 | 0.0425 ± 0.0064 | -0.0025 ± 0.029 | 0.017 ± 0.048
CASM3C:CD141/Thrombomodulin | 0.0575 ± 0.016 | -0.051 ± 0.024 | -0.029 ± 0.069 | -0.0125 ± 0.087 | 0.017 ± 0.044 | -0.008 ± 0.016 | -0.0205 ± 0.005 | 0.043 | 0.0235 ± 0.066 | -0.019 ± 0.03 | -0.015 ± 0.031 | -0.0125 ± 0.029 | 0.0035 ± 0.052 | 0.024 ± 0.047 | 0.002 ± 0.0042 | -0.024 ± 0.045 | -0.0155 ± 0.0035 | -0.0155 ± 0.11 | -0.0295 ± 0.0078 | -0.051 ± 0.02
BF4T:IL-1alpha | 0.013 ± 0.013 | 0.0225 ± 0.064 | -0.026 ± 0.021 | -0.027 ± 0.027 | 0.0105 ± 0.0092 | -0.003 ± 0.0085 | -0.017 ± 0.0014 | 0.042 | -0.005 ± 0.03 | -0.004 ± 0.013 | -0.0335 ± 0.0035 | -0.247 ± 0.28 | -0.0095 ± 0.0078 | -0.0175 ± 0.0035 | 0.0105 ± 0.012 | -0.0135 ± 0.026 | -0.02 ± 0.0099 | 0.003 ± 0.034 | 0.014 ± 0.044 | 0.018 ± 0.0099
3C:SRB | 0.0095 ± 0.00071 | 0.012 ± 0.017 | 0 ± 0.017 | 0.0075 ± 0.011 | 0.009 ± 0.0042 | 0.008 ± 0.016 | 0.0195 ± 0.019 | -0.054 | -0.0025 ± 0.005 | 0.012 ± 0.0014 | 0.0095 ± 0.0021 | -0.005 ± 0.0042 | 0.016 ± 0.0028 | -0.0095 ± 0.0035 | -0.025 ± 0.0028 | -0.016 ± 0.0085 | -0.0065 ± 0.016 | -0.0075 ± 0.0064 | 0.0055 ± 0.023 | 0.0165 ± 0.0035
SAg:CXCL8/IL-8 | -0.0165 ± 0.028 | 0.0085 ± 0.04 | 0.0055 ± 0.087 | 0.0085 ± 0.011 | 0.0055 ± 0.023 | 0.005 ± 0.018 | 0.023 ± 0.0085 | -0.022 | -0.0285 ± 0.022 | 0.033 ± 0.0085 | -0.0325 ± 0.03 | -0.064 ± 0.038 | 0.033 ± 0.042 | 0.021 ± 0.014 | 0.047 ± 0.048 | -0.0235 ± 0.032 | 0.0415 ± 0.057 | 0.048 ± 0.058 | 0.0185 ± 0.043 | 0.033 ± 0.079
lMphg:IL-1alpha | 0.02 ± 0.03 | -0.0085 ± 0.035 | -0.005 ± 0.065 | -0.008 ± 0.083 | -0.042 ± 0.017 | -0.011 ± 0.024 | -0.004 ± 0.044 | 0.027 | 0.023 ± 0.031 | 0.004 ± 0.027 | 0.0085 ± 0.0078 | 0.013 ± 0.02 | -0.0765 ± 0.053 | 0.0005 ± 0.016 | 0.032 ± 0.044 | 0.0185 ± 0.016 | -0.015 | 0.001 ± 0.023 | 0.028 ± 0.045 | 0.018 ± 0.024
MyoF:TIMP-1 | -0.0185 ± 0.023 | -0.0005 ± 0.021 | -0.043 ± 0.04 | -0.0365 ± 0.029 | 0.012 ± 0.0028 | 0.0185 ± 0.011 | 0.041 | 0.123 | -0.0325 ± 0.0092 | -0.0225 ± 0.0064 | -0.0345 ± 0.035 | -0.059 ± 0.038 | 0.0025 ± 0.069 | 0.002 ± 0.0042 | -0.0045 ± 0.0021 | -0.019 ± 0.034 | 0.004 ± 0.095 | -0.0145 ± 0.067 | 0.0255 ± 0.064 | 0.004 ± 0.021
LPS:CD40 | -0.015 ± 0.031 | 0.008 ± 0.0071 | 0.0345 ± 0.03 | 0.0075 ± 0.0092 | -0.007 ± 0.021 | -0.0145 ± 0.04 | -0.0525 ± 0.021 | -0.148 | 0.0035 ± 0.023 | 0.038 ± 0.11 | -0.015 ± 0.16 | -0.0235 ± 0.12 | 0.0135 ± 0.023 | 0.052 ± 0.071 | -0.0025 ± 0.0078 | -0.0275 ± 0.067 | -0.005 ± 0.02 | 0.056 ± 0.0057 | -0.0055 ± 0.005 | -0.0495 ± 0.00071
4H:CD106/VCAM-1 | -0.002 ± 0.0042 | -0.0155 ± 0.056 | -0.009 ± 0.0014 | -0.003 ± 0.0057 | 0.003 ± 0.0028 | 0.0015 ± 0.011 | -0.028 ± 0.016 | -0.132 | -0.024 ± 0.013 | 0.037 ± 0.021 | 0.0165 ± 0.0092 | 0.0185 ± 0.029 | -0.0215 ± 0.005 | 0.047 ± 0.035 | 0.017 ± 0.0057 | -0.0165 ± 0.0021 | -0.0105 ± 0.021 | 0.012 ± 0.0042 | -0.0155 ± 0.012 | 0.042 ± 0.064
BF4T:CXCL8/IL-8 | 0.0255 ± 0.063 | 0.0045 ± 0.042 | 0.0675 ± 0.08 | 0.0455 ± 0.061 | 0.0045 ± 0.028 | 0.0025 ± 0.016 | 0.002 ± 0.034 | 0 | 0.0215 ± 0.005 | 0.066 ± 0.0085 | 0.0395 ± 0.012 | -0.293 ± 0.076 | 0.021 ± 0.0057 | 0.0275 ± 0.0035 | 0.005 ± 0.031 | 0.009 ± 0.025 | 0.0415 ± 0.0092 | 0.0135 ± 0.012 | 0.021 ± 0.011 | 0 ± 0.016

Quoted at random: 2 records from the list
Test System | level (log10) [1] | level (log10) [2] | level (log10) ([3]; 740 nM) | level (log10) ([3]; 2200 nM) | level (log10) (Perfluorooctanamidine; 2200 nM) | level (log10) (Perfluorooctanamidine; 6700 nM) | level (log10) (Perfluorooctanamidine; 20000 nM) | level (log10) (Perfluorooctanamidine; 60000 nM) | level (log10) [4] | level (log10) (Perfluorodecanoic acid; 2200 nM) | level (log10) (Perfluorodecanoic acid; 6700 nM) | level (log10) (Perfluorodecanoic acid; 20000 nM) | level (log10) (Perfluorononanoic acid) | level (log10) [5] | level (log10) (Perfluorooctanoic acid) | level (log10) [6] | level (log10) [7] | level (log10) [8] | level (log10) [9] | level (log10) [10]
BF4T:CXCL8/IL-8 | 0.0255 ± 0.063 | 0.0045 ± 0.042 | 0.0675 ± 0.08 | 0.0455 ± 0.061 | 0.0045 ± 0.028 | 0.0025 ± 0.016 | 0.002 ± 0.034 | 0 | 0.0215 ± 0.005 | 0.066 ± 0.0085 | 0.0395 ± 0.012 | -0.293 ± 0.076 | 0.021 ± 0.0057 | 0.0275 ± 0.0035 | 0.005 ± 0.031 | 0.009 ± 0.025 | 0.0415 ± 0.0092 | 0.0135 ± 0.012 | 0.021 ± 0.011 | 0 ± 0.016
3C:SRB | 0.0095 ± 0.00071 | 0.012 ± 0.017 | 0 ± 0.017 | 0.0075 ± 0.011 | 0.009 ± 0.0042 | 0.008 ± 0.016 | 0.0195 ± 0.019 | -0.054 | -0.0025 ± 0.005 | 0.012 ± 0.0014 | 0.0095 ± 0.0021 | -0.005 ± 0.0042 | 0.016 ± 0.0028 | -0.0095 ± 0.0035 | -0.025 ± 0.0028 | -0.016 ± 0.0085 | -0.0065 ± 0.016 | -0.0075 ± 0.0064 | 0.0055 ± 0.023 | 0.0165 ± 0.0035
